Results deposited as PubChem BioAssay AID1259254 (NCATS, 2017).
Assay: 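Genome-wide screen for genes that prevent DNA re-replication in cancer cells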 (primary screen). Cell system: human HCT116 colorectal cancer cells. Reagent: single siRNA against human genes. Time to read-out: 3 days. Measured: 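Imaged Hoechst DNA stain sorts each cell into a cycle phase by DNA amount; per plate, G2 fraction set to 0% for non-targeting and 100% for GMNN siRNA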. Reading the numbers: G2 robust z-score and G2 cells, % of GMNN control: higher = more G2 cells, more excess DNA replication. Hit rule: 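An siRNA counts as active if its G2 robust z-score lies at least 5 MADs above the screen median; here such calls match roughly 38% of GMNN control or more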.
In all, the deposit lists about 59,000 reagents; shown is a part drawn at random. About 1,550 of all reagents (2.6%) count as active. 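G2 share is only a proxy for re-replication; each gene was hit by three separate siRNAs, and active genes were retested.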 Not all columns of the deposit are shown. Not stated in the record: the amount of reagent.

TRAPPC14 (trafficking protein particle complex subunit 14) [SID160743378] | G2 robust z-score = -0.865; G2 cells, % of GMNN control = -3.12; call = inactive
TRAPPC14 (trafficking protein particle complex subunit 14) [SID160743379] | G2 robust z-score = 0.0581; G2 cells, % of GMNN control = 3.38; call = inactive
TRAPPC14 (trafficking protein particle complex subunit 14) [SID160743380] | G2 robust z-score = 0.872; G2 cells, % of GMNN control = 9.1; call = inactive
THAP4 (THAP domain containing 4) [SID160739993] | G2 robust z-score = 0.64; G2 cells, % of GMNN control = 7.47; call = inactive
THAP4 (THAP domain containing 4) [SID160739994] | G2 robust z-score = 1.25; G2 cells, % of GMNN control = 11.8; call = inactive
THAP4 (THAP domain containing 4) [SID160739995] | G2 robust z-score = 2.44; G2 cells, % of GMNN control = 20.1; call = inactive
MAP4K4 (mitogen-activated protein kinase kinase kinase kinase 4) [SID160722234] | G2 robust z-score = 1.32; G2 cells, % of GMNN control = 12.2; call = inactive
MAP4K4 (mitogen-activated protein kinase kinase kinase kinase 4) [SID160722235] | G2 robust z-score = 1.49; G2 cells, % of GMNN control = 13.5; call = inactive
MAP4K4 (mitogen-activated protein kinase kinase kinase kinase 4) [SID160722236] | G2 robust z-score = 0.958; G2 cells, % of GMNN control = 9.71; call = inactive
CYP3A43 (cytochrome P450 family 3 subfamily A member 43) [SID160748029] | G2 robust z-score = -0.0372; G2 cells, % of GMNN control = 2.71; call = inactive
CYP3A43 (cytochrome P450 family 3 subfamily A member 43) [SID160748031] | G2 robust z-score = -1.22; G2 cells, % of GMNN control = -5.58; call = inactive
CYP3A43 (cytochrome P450 family 3 subfamily A member 43) [SID160748032] | G2 robust z-score = 0.32; G2 cells, % of GMNN control = 5.22; call = inactive
PRKG1 (protein kinase cGMP-dependent 1) [SID160714970] | G2 robust z-score = -1.66; G2 cells, % of GMNN control = -8.74; call = inactive
PRKG1 (protein kinase cGMP-dependent 1) [SID160714971] | G2 robust z-score = -0.956; G2 cells, % of GMNN control = -3.76; call = inactive
PRKG1 (protein kinase cGMP-dependent 1) [SID160714972] | G2 robust z-score = 0.441; G2 cells, % of GMNN control = 6.07; call = inactive
PLSCR2 (phospholipid scramblase 2) [SID160745528] | G2 robust z-score = -0.769; G2 cells, % of GMNN control = -2.45; call = inactive
PLSCR2 (phospholipid scramblase 2) [SID160745529] | G2 robust z-score = 0.0592; G2 cells, % of GMNN control = 3.38; call = inactive
PLSCR2 (phospholipid scramblase 2) [SID160745530] | G2 robust z-score = -0.142; G2 cells, % of GMNN control = 1.96; call = inactive
H2BC3 (H2B clustered histone 3) [SID160723832] | G2 robust z-score = -0.352; G2 cells, % of GMNN control = 0.493; call = inactive
H2BC3 (H2B clustered histone 3) [SID160774814] | G2 robust z-score = -0.59; G2 cells, % of GMNN control = -1.18; call = inactive
H2BC3 (H2B clustered histone 3) [SID160774816] | G2 robust z-score = 3.34; G2 cells, % of GMNN control = 26.5; call = inactive
SCYL3 (SCY1 like pseudokinase 3) [SID160745702] | G2 robust z-score = 0.399; G2 cells, % of GMNN control = 5.78; call = inactive
SCYL3 (SCY1 like pseudokinase 3) [SID160745703] | G2 robust z-score = 3.77; G2 cells, % of GMNN control = 29.5; call = inactive
SCYL3 (SCY1 like pseudokinase 3) [SID160745705] | G2 robust z-score = 2.04; G2 cells, % of GMNN control = 17.3; call = inactive
